Data published in PMC5379108.
No constants are given. Whether binding was seen depends on the method and setting. Binding seen in cells or lysates may run through a third protein. Binding can be weak; no strength is given.

Sequences of proteins named here, by UniProt entry; tags and fusion partners are left off. A change or cut given only in a name is not applied to a line headed by its entry.
UniProt Q8TEW0: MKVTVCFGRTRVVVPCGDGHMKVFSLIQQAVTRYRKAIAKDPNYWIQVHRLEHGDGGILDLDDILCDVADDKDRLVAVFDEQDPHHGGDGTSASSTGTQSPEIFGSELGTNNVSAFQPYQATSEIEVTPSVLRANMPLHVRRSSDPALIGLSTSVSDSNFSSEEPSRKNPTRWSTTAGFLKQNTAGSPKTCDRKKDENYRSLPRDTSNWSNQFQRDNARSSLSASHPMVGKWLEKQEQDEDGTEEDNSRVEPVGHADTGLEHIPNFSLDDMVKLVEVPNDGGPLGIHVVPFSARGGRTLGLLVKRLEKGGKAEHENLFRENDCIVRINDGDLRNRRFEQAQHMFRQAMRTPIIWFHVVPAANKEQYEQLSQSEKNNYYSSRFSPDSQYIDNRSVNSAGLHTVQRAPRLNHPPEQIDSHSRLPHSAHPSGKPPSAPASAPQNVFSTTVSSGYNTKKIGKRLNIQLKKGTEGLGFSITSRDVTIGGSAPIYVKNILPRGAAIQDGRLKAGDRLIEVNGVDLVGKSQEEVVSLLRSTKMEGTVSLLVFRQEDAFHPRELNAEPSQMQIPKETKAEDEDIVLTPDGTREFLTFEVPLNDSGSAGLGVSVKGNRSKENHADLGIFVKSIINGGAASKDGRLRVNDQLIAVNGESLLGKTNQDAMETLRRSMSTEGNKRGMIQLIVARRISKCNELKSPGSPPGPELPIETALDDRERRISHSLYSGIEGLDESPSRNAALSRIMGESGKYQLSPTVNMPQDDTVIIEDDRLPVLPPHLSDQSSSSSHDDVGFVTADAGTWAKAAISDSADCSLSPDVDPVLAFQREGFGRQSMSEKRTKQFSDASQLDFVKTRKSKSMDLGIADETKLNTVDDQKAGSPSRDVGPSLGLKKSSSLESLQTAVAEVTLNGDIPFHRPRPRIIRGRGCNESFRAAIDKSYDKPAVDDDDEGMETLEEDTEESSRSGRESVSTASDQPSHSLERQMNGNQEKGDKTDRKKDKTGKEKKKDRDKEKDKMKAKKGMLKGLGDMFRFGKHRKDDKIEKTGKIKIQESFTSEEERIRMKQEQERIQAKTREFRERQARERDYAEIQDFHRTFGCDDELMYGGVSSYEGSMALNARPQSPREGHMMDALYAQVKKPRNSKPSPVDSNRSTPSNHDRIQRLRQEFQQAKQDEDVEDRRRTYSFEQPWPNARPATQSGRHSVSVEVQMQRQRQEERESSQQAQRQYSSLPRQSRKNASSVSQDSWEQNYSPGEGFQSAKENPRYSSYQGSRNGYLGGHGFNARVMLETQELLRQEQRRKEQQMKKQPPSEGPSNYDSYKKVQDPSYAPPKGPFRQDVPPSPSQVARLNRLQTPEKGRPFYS
UniProt Q96A65: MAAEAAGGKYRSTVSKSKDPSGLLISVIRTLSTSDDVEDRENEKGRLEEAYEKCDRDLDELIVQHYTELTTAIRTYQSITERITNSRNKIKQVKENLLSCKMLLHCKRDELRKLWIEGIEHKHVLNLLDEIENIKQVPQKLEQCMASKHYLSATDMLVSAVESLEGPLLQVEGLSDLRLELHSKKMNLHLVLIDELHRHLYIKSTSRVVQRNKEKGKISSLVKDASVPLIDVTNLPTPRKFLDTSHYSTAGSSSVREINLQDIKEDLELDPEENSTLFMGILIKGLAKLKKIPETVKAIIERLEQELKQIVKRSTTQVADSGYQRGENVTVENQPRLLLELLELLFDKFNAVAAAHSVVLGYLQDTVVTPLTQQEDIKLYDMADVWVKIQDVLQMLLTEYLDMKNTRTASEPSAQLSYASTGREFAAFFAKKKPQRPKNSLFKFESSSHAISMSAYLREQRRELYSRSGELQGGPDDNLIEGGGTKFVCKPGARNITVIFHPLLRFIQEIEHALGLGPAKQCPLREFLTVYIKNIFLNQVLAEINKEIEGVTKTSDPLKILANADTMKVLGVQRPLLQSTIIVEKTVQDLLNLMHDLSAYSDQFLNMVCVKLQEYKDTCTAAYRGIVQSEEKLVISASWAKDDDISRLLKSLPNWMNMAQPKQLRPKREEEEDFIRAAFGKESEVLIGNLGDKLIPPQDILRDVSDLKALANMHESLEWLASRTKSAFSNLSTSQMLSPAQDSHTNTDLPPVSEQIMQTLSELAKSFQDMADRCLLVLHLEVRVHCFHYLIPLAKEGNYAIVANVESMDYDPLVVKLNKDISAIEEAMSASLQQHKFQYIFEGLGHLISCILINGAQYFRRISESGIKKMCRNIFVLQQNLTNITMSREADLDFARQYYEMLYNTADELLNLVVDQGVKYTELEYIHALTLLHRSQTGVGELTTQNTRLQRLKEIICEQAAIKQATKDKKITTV

Columns and labels:
[1] = target: Myc-PAR3 (from pKMyc-PAR3b) (human) (UniProt Q8TEW0); test: co-IP; HEK293T cells transfected with pKMyc-PAR3b (PKYFP as negative control); immunoprecipitated with anti-Myc (9E10), blotted with anti-Sec8; lysis in 0.1% Triton-X100, 20 mM HEPES pH 7.4, 50 mM NaCl, 2 mM EDTA
[2] = target: SEC8 (endogenous, HEK293T) (human (endogenous in HEK293T)) (UniProt Q96A65); test: co-IP; YFP-PAR3 constructs transiently expressed in HEK293T cells; immunoprecipitated with anti-Sec8, blotted with anti-GFP or anti-Sec8

Row | Substance | binding [1] | binding [2]
1 | SEC8 (endogenous, HEK293T) (from UniProt Q96A65 1-974) | binds | –
2 | wild-type YFP-PAR3 (from UniProt Q8TEW0-2) | – | binds
